# PubChem BioAssay AID588499 (NMMLSC, 2011)
# “And” between values parts separate entries of the source, which are not always exact repeats. Identical values can stand only once. The whole screen tested about 360,000 compounds, of which about 610 (0.17%) were called active. This list was built around the results that the source calls inconclusive (neither active nor inactive); the mix of calls is not that of the screen. Rule as the data show it: active = inhibition above about 30%; inconclusive = no clear call, values can overlap the other calls; inactive = below that.
# Tested on: Botulinum neurotoxin type A light chain protease (Clostridium botulinum A str. ATCC 3502)
# Assay: blockers of BoNT/A LC substrate cleavage – biochemical, flow cytometry, MLPCN library, primary screen (AID 588499); also: plate controls were buffer without enzyme for full effect and enzyme alone for no effect
# Settings: multiplex microsphere protease substrate cleavage, at 10 µM, stronger effect = higher value
row,SMILES,inhibition
1,CCOC(=O)c1cc2c(=O)[nH]ccc2nc1C(F)(F)F,inconclusive: -41.9%
2,COc1ccc(S(=O)(=O)N(Cc2ccccc2)c2ccccc2C(=O)N2CCOCC2)cc1,inactive: 0.6%
3,CCn1cc(CN2CCC(n3nccc3NC(=O)C3CCCC3)CC2)cn1,inactive: -0.5%
4,Cn1c(=O)c2c(nc(N3CCCCCC3)n2CC(O)COc2ccc(Cl)cc2)n(C)c1=O (configuration not stated),inconclusive: 1.1%
5,COCCn1c(N)c(S(=O)(=O)c2cccs2)c2nc3ccccc3nc21,inactive: 1.9%
6,COc1cccc(NC(=S)NC2CC(C)(C)NC(C)(C)C2)c1,inactive: -0.4%
7,COc1ccc([C@@H]2C[C@H]3[C@@H](CN2S(=O)(=O)c2ccccc2)C(=O)C[C@@H](c2ccccc2)N3S(=O)(=O)c2ccc(C)cc2)cc1,inactive: -0.5%
8,C(=C/c1ccnc2nc(SC/C=C/c3ccccc3)nn12)/c1ccccc1,inconclusive: -1.8%
9,CCC1(C)Cc2c(C#N)c(N)sc(=S)c2CO1 (configuration not stated),active: 75%
10,CCOC(=O)C1=C(N)Oc2cc(C)oc(=O)c2C12C(=O)N1c3c(cc(OC)cc32)C(C)=CC1(C)C (configuration not stated),inconclusive: -0.7%
11,Cc1onc(-c2ccccc2Cl)c1C(=O)N1CC(C)OC(C)C1 (configuration not stated),inconclusive: 0.4%
12,Cc1ccccc1-n1c(=O)c(C#N)cc2c(=O)n3ccccc3nc21,inconclusive: -3.3%
13,CCN1/C(=C\C(=S)Nc2ccccc2)Sc2ccccc21,active: 39.1%
14,C/C(=N\O)C(C)(C)Nc1ccccc1F,inconclusive: -1.4%
15,Cc1cc(C)c(NC(=O)C(C)Sc2nc3ccc(N4C(=O)c5ccccc5C4=O)cc3s2)c(C)c1 (configuration not stated),inconclusive: 0.7%
16,CCCCn1cnc2cc(NCc3cccc(OC)c3O)ccc21,inconclusive: 1.2%
17,Cc1n[nH]c(=S)n1/N=C/c1ccccc1OCc1ccc(Cl)cc1,inconclusive: 5.1%
18,S=C(NN=C(c1ccccc1)c1ccccn1)N(Cc1ccccn1)Cc1ccccn1,active: 51.4%
19,COc1ccccc1Oc1ccnc2cc(Cl)ccc12,inactive: 0.6%
20,CCCCCCOc1ccc(CN2CCN(C)CC2)cc1,inconclusive: -2.6%
21,CC(NC(=O)c1ccco1)C(=O)OCc1cccc(C(F)(F)F)c1 (configuration not stated),inactive: -1.6%
22,COc1ccc2[nH]c(=O)c(C(c3nnnn3C3CCCC3)N(C)C3CCCCC3)cc2c1 (configuration not stated),inconclusive: -3.8%
23,Cc1cc(C)n(CC(O)COCc2ccccc2)n1 (configuration not stated),inconclusive: -0.3%

row,SMILES,inhibition
1,Cc1ccc2c(=O)cc(C(=O)NC3CCS(=O)(=O)C3)oc2c1C (configuration not stated),inactive: 1.1%
2,CC(C)(C)c1nc(S(=O)(=O)c2ccc(Cl)cc2)c(N2CCOCC2)o1,inconclusive: 2.6%
3,N/C(COc1cc(Cl)cc(Cl)c1)=N\O,inconclusive: 4.4%
4,CC(=O)c1cc(-c2ccccc2)n(CC(=O)N2CCC(C)CC2)c1C,inconclusive: -2.9%
5,CCCC1=C(C(=O)OCC)C(/C=C/c2ccccc2)n2ncnc2N1 (configuration not stated),inconclusive: -4.8%
6,Cc1cc(C)cc(NC(=O)c2cccn2-c2ncc(C(F)(F)F)cc2Cl)c1,inconclusive: -4.3%
7,CC(C)NC(=O)c1cc(C2CCCCN2C(=O)c2ccccc2)on1 (configuration not stated),inactive: 0.1%
8,Cc1ccc(C(=O)NNC(=O)c2ccc(NC(=O)C(C)(C)C)cc2)cc1,inactive: 0.1%
9,CC(=NNC(=S)SCc1ccccc1)c1ccccn1,active: 41.8%
10,CN1C(=O)CCC1(O)c1ccccc1 (configuration not stated),inconclusive: -1.7%
11,O=S1(=O)NC(=NCc2ccccc2)c2ccccc21,inconclusive: 5.8%
12,CCN(CC(=O)NCc1ccc(F)cc1)C(=O)CN1CCN(c2cc(Cl)ccc2C)CC1,inactive: -0.2%
13,COc1ccc(CCC(=O)Nc2ccc(Br)cn2)cc1,inconclusive: -3.3%
14,CCC(C(=O)Nc1cnccn1)c1ccccc1 (configuration not stated),inactive: -2.1%
15,O=C(Nc1ccc(N2CCN(c3ccc(O)cc3)CC2)cc1)Oc1ccccc1,inconclusive: -3%
16,CCCn1c(SCC(=O)c2c[nH]c3ccccc23)nnc1-c1ccncc1,active: 52.9%
17,O=C(CSc1ncccn1)NCc1ccccc1Cl,inconclusive: -3.6%
18,O=C(CSc1nc2cc3ccccc3cc2[nH]1)Nc1ccc(F)cc1,inconclusive: 0.5%
19,CC(=O)c1csc(CS(=O)(=O)c2ccccn2)n1,inconclusive: -4.4%
20,Cc1ccc(O)c(C(=O)c2coc(=N)c(C(=O)NC(C)C)c2)c1,inconclusive: 1%
21,Cc1ccc(CC2C(=O)N(C)C(=O)N(C)C2=O)s1,inconclusive: -3.3%
22,COc1cc2cc(C(c3nnnn3C3CCCC3)N3CCCCCC3)c(=O)[nH]c2cc1OC (configuration not stated),inactive: -0.7%
23,COC(=O)C1C(=O)NCC1c1ccc(C)cc1 (configuration not stated),inconclusive: 1.2%

row,SMILES,inhibition
1,CCCCC(=O)NC(NC(=S)N1CCOCC1)C(Cl)(Cl)Cl (configuration not stated),inconclusive: 2.2%
2,COc1cc(CCC(=O)Nc2ccc(C)c(S(=O)(=O)N(C)C)c2)cc(OC)c1OC,inactive: 0%
3,O=C(Nc1c2c(nn1-c1ccc(F)cc1)CS(=O)(=O)C2)C12CC3CC(CC(C3)C1)C2,inconclusive: -3%
4,Cc1cc2c3c(c1)C1(C(=O)N3C(C)(C)CC2C)C(C#N)=C(N)OC2=C1C(=O)CC(C)(C)C2 (configuration not stated),inactive: 0%
5,COC(=O)c1ccccc1NC(=O)C1CCCCC1C(=O)O (configuration not stated),inconclusive: -1%
6,[O-][N+]1=c2ccc(Nc3ccccc3)cc2=NC12CCCCC2,inactive: -1.4%
7,CCN(CC)c1ccc(N2C(=O)/C(=C/c3ccccn3)SC2=S)cc1,inconclusive: 18%
8,COc1cccc(C(=O)Nc2ccc(C(=O)c3ccccc3)cc2)c1,inconclusive: 3.5%
9,CCOC(=O)C1CCCN(C(=O)/C=C/c2ccc([N+](=O)[O-])cc2)C1 (configuration not stated),inactive: -0.4%
10,COCCCNC(=O)CSc1nc2ccccc2c(=O)n1CCCC(=O)NCC1CCCO1 (configuration not stated),inconclusive: 0.1%
11,CCOC(=O)C1CCN(Cc2c(O)ccc3ccccc23)CC1,inconclusive: 5.1%
12,O=C(Nc1ccccc1)C1C2CCCCC21 (configuration not stated),inconclusive: -3%
13,O=C(C1CCC(Cn2c(=S)[nH]c3ccccc3c2=O)CC1)N1CCOCC1 (configuration not stated),inconclusive: -1.8%
14,CCS(=O)(=O)N1Cc2ccccc2CC1C(=O)Nc1ccc(F)c(F)c1 (configuration not stated),inactive: -1.1%
15,COc1ccc(F)c(CN2CCCC(CO)(Cc3cccc(Cl)c3)C2)c1 (configuration not stated),inconclusive: 4.2%
16,CC(=O)N1CCN(S(=O)(=O)c2ccc(S(=O)(=O)NCC(C)C)cc2)CC1,inconclusive: -3.7%
17,C[C@H]1CN([C@@H](C)CO)S(=O)(=O)c2ccc(Br)cc2O[C@@H]1CN(C)C(=O)Nc1ccc2c(c1)OCO2,inactive: -0.5%
18,COc1ccc(CN2CCOCC2)cc1Br,inconclusive: 1.6%
19,Cn1cccc1Cc1nnc(SCC(=O)NCC2CCCO2)n1CCc1ccccc1 (configuration not stated),inconclusive: 0.3%
20,CC(C)CC1C(=O)N(Cc2cn(CCC3OCCCO3)nn2)CCS(=O)(=O)N1Cc1ccc(-c2ccncc2)cc1 (configuration not stated),inactive: 0.4%
21,CCOC(CC(=O)NNC(=O)c1c(-c2ccccc2Cl)noc1C)OCC,inconclusive: -3.9%
22,CC1(C)N(OCc2ccccc2)C(=O)C(=O)N(OCc2ccccc2)C1(C)C,inconclusive: 5%
23,N#CC1C(C#N)N2CCCN2C1c1ccc(Br)cc1 (configuration not stated),inconclusive: 19.3%

row,SMILES,inhibition
1,Cc1nc(-c2cccc(NS(=O)(=O)c3cccc4ccccc34)c2)cs1,inconclusive: 2.7%
2,CN(C)CCN1C(=O)C(=O)/C(=C(/O)c2ccc3c(c2)OCCO3)C1c1ccccn1 (configuration not stated),inconclusive: 8.2%
3,Cc1nnc(SCC(=O)NCc2cccs2)n1-c1ccccc1,inactive: 1.3%
4,CC(C)(C)C(=O)Nc1ccccc1C(=O)Nc1cccnc1,inactive: 0.9%
5,CCCCOc1ccc(-c2nc(=S)[nH][nH]2)cc1,inconclusive: -0.9%
6,O=C(COC(=O)C1CC2CCCC(C1)C2=O)Nc1ccccc1 (configuration not stated),inactive: -0.6%
7,Cc1cc(SCC(=O)c2ccccc2)n2ncc(-c3ccccc3)c2n1,inconclusive: -41.9%
8,CC1(C)CC(=O)N(CC(=O)O)c2ccccc2S1,inconclusive: 4.6%
9,CCOC(=O)C1=C(C)NC(C)=C(C(=O)OCC)C1,inactive: -0.7% and inconclusive: 3.1%
10,COC(=O)C1=C(C(=O)OC)C(c2cc(Br)ccc2O)c2sc(=O)[nH]c2S1 (configuration not stated),inactive: -0.4%
11,O=C(Cc1ccccc1)Nc1cccc(N2CCCC2)c1,inconclusive: 4.3%
12,COc1ccc(CCC(=O)NC2CCC(C)CC2)cc1 (configuration not stated),inactive: 0.3%
13,COc1ccc(NC(=O)COc2cccc3c2OC(C)(C)C3)cc1OC,inconclusive: -9.9%
14,COCCNC(=O)CCSc1nc(-c2ccc(OC)cc2)cc(C(F)(F)F)n1,inactive: 1%
15,COc1cccc2c1C(=O)c1ccc3ccccc3c1C2=O,active: 34%
16,Nc1nc(C(F)(F)F)cc(=O)[nH]1,inconclusive: 14.4%
17,O=C(Nc1nc2ccccc2s1)c1ccccc1[N+](=O)[O-],inconclusive: 2%
18,CN(C)S(=O)(=O)c1cccc(NC(=O)COC(=O)CNC(=O)c2ccccc2F)c1,inactive: -0.8%
19,O=C(Cn1nc([N+](=O)[O-])nc1Br)NC(c1ccccc1)c1ccccc1,inactive: -0.2%
20,O=C(N/N=C/C(Br)=C\c1ccccc1)c1n[nH]c2c1CCC2,inactive: -5.1%
21,NC(=O)C1CCN(c2nc(C3CC3)nc3c2nnn3Cc2ccccc2Cl)CC1,inconclusive: -4.3%
22,CN1C=CC=C/C1=C1\SC(=S)N(C2CCCCC2)C1=O,inconclusive: 2.7%
23,Cn1c(=O)c2nc(SCc3ccccc3)n(C)c2n(C)c1=O,inactive: -0.3%
